Measurements reported in patent publication US20160175293A1, “PIM KINASE INHIBITOR COMBINATIONS” (priority 2013, published 2016).

Conditions: 500 mg, Day 1

SMILES: C[C@@H]1C[C@H](N)C[C@H](c2ccncc2NC(=O)c2ccc(F)c(-c3c(F)cccc3F)n2)C1 [Compound A, N-(4-((1R,3S,5S)-3-amino-5-methylcyclohexyl)pyridin-3-yl)-6-(2,6-difluorophenyl)-5-fluoropicolinamide]
- time of peak drug concentrations post dose: 3 to 8 h
